# Test results published in paper PMC7819943, “Rice protein-binding microarrays: a tool to detect cis-acting elements near promoter regions in rice”.
# By UniProt entry, the sequences of proteins in these tests, tags left out.
# UniProt Q0JBA9, entry or part of it: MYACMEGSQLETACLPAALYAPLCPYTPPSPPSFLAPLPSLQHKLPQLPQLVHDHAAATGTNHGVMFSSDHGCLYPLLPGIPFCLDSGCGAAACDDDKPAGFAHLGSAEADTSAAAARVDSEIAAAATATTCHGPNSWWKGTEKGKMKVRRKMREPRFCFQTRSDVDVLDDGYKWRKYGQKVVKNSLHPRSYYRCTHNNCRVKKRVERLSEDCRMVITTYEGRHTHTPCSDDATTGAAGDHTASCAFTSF
# The other results are listed elsewhere or left out.
# Biological target: OsWRKY34 (Oryza sativa, UniProt Q0JBA9 1-250)
# Assay: protein-binding microarray (RPBM); PBS, 2% BSA, 51.3 ng/ul salmon testes DNA, 50 uM zinc acetate, 200 nM TF, 25 C, 1 h; high values mean tight binding
# Conditions: protein: recombinant; tags: N-terminal polyhistidine and DsRed monomer fusion (pET32a); label: CyDye5-dUTP incorporated in the synthesized complementary strand; 3' TTTTT single-stranded linker to array surface; dsDNA, one strand shown
# Summary of the method: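 An Axon 4000B scanner gave the binding signal as per-feature fluorescence intensity in arbitrary units. This followed washing of a custom Agilent array that had been incubated for 1 h at 25 °C with 200 nM protein in PBS, 2% BSA, salmon testes DNA and 50 µM zinc acetate. The proteins were transcription factors fused at the N-terminus to polyhistidine and DsRed, expressed in E. coli BL21-CodonPlus and purified on Ni–NTA.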
row,Sequence,binding signal
1,ACGGAGGGTGTGCTCTGCTTATTAGTTATTTCTTCAACGACGGAGTCACCTAGTGCAG,9180 fluorescence intensity (a.u.)
2,CAAATTATGTAAAATGTTCTGTATTTTGTGCCAATTGACTCGGAGTCACCTAGTGCAG,8080 fluorescence intensity (a.u.)
3,AGCCCGATAATCTCCCTATTCTTTCCATTACCCTCTCCTACGGAGTCACCTAGTGCAG,8880 fluorescence intensity (a.u.)
4,AGTTTTTAAGAGCGTCTTTCAGCTGTGACATGGTTTTTTTCGGAGTCACCTAGTGCAG,8400 fluorescence intensity (a.u.)
5,CCACCACCACCGCTGCTTCCAAGTTCCAACCGCTCCCTCTCGGAGTCACCTAGTGCAG,9210 fluorescence intensity (a.u.)
6,TTGATTTTTTTAGCACATGTTTGACCGTTCGTCTTATTAACGGAGTCACCTAGTGCAG,13200 fluorescence intensity (a.u.)
7,GGTTAAACGTTACATAATGAAATCCAGGGTTTTTTTTCTTCGGAGTCACCTAGTGCAG,8300 fluorescence intensity (a.u.)
8,TGTCTCTTATCTCTTTCTTCTCTTTCCCACGACCACACATCGGAGTCACCTAGTGCAG,8030 fluorescence intensity (a.u.)
9,CCGCCGCCTTTGACCGCCGCGCGCGCGCGCCTACTATACCCGGAGTCACCTAGTGCAG,12600 fluorescence intensity (a.u.)
10,ATTCGGTTTTTTTCCTCTCTTTTTTCTCCACTTTTTTTTTCGGAGTCACCTAGTGCAG,10500 fluorescence intensity (a.u.)
11,GCGTCGCCACCGCCGTGATCACCACCATCGACAGCGCCAGCGGAGTCACCTAGTGCAG,9900 fluorescence intensity (a.u.)
12,CATATTTGCATGCACTCTCTGTTCTTCCCCTATTTCTTACCGGAGTCACCTAGTGCAG,9950 fluorescence intensity (a.u.)
13,ACCACTTCCGTAGCTGTGCAGTCTCTCTGTGTTGTACACGCGGAGTCACCTAGTGCAG,8410 fluorescence intensity (a.u.)
14,TGTTGGTGGTTGTACATTGGGTCTCAGGGTTAAAATCATACGGAGTCACCTAGTGCAG,14000 fluorescence intensity (a.u.)
15,GTAGCCACCCACACGACGCGCGCTGCCGCTGCTCACACCTCGGAGTCACCTAGTGCAG,8720 fluorescence intensity (a.u.)
16,ACTTGCGCGCGTCGTTACCCGTTTTGCCCTGACGCGTGCACGGAGTCACCTAGTGCAG,9140 fluorescence intensity (a.u.)
17,AGGATAATGCATACACTAGTAAGGCCCATAGATACATTTGCGGAGTCACCTAGTGCAG,8560 fluorescence intensity (a.u.)
18,ATCCTGACTACGCCATCGATCGTGCAAGTGCTGCTTTTATCGGAGTCACCTAGTGCAG,11800 fluorescence intensity (a.u.)
19,CTGAACCCTACCCCTTTGACTCATCCTGTCATCCCCATGACGGAGTCACCTAGTGCAG,9600 fluorescence intensity (a.u.)
20,TCGCATTAGCTTTGTCTCTGTCGTTTCCACATCCTTTGTTCGGAGTCACCTAGTGCAG,9630 fluorescence intensity (a.u.)
21,CTTCACTCTTGATTCAAAAGGTTTTATTTTTTTTTCTGGTCGGAGTCACCTAGTGCAG,8530 fluorescence intensity (a.u.)

# Some of the entries above, reformatted:
row	Sequence	binding signal
5	CCACCACCACCGCTGCTTCCAAGTTCCAACCGCTCCCTCTCGGAGTCACCTAGTGCAG	9210 fluorescence intensity (a.u.)
6	TTGATTTTTTTAGCACATGTTTGACCGTTCGTCTTATTAACGGAGTCACCTAGTGCAG	13200 fluorescence intensity (a.u.)

# (further entries)

row,Sequence,binding signal
1,TATTAAACTCCATTCTCTGCAGTGCCATTGCCTCCATTTCCGGAGTCACCTAGTGCAG,9630 fluorescence intensity (a.u.)
2,TTTCTCATGCATCGACCACTTTCTGTTTCATCTCCTGAAACGGAGTCACCTAGTGCAG,9720 fluorescence intensity (a.u.)
3,GATTTGATTTTTTTTTCACGGAGTGAGTATTGCTTATATACGGAGTCACCTAGTGCAG,8200 fluorescence intensity (a.u.)
4,CATTTCCCTACAGTACATATAACTAGATAGTATCTCTTCGCGGAGTCACCTAGTGCAG,9440 fluorescence intensity (a.u.)
5,CATCACTTTTTTGTTGTTTTTTTCGCTCACTTGCCACTTTCGGAGTCACCTAGTGCAG,10200 fluorescence intensity (a.u.)
6,TCCTCTACCACCTCCGCCGCTGCTCGTCGTCACCGACCTCCGGAGTCACCTAGTGCAG,10900 fluorescence intensity (a.u.)
7,AACTCGCTCTCCGGGTAGAGTACACGTCACCACCCGACTCCGGAGTCACCTAGTGCAG,8310 fluorescence intensity (a.u.)
8,CTGCTTCTTTTGTTTGGTTGGTTTCAGGGCTTCGTGGCCACGGAGTCACCTAGTGCAG,17800 fluorescence intensity (a.u.)
9,ATCGACCATCCACACGCACGCACTTATACAATTTGGTTTCCGGAGTCACCTAGTGCAG,12200 fluorescence intensity (a.u.)
10,GGCACATCTCCGGCGCCCACCTCAACCCGTCGCTCACCATCGGAGTCACCTAGTGCAG,8120 fluorescence intensity (a.u.)
11,TCGAAACTTTCCTACACACGTAAACTTCCAACTTTTCCGTCGGAGTCACCTAGTGCAG,8620 fluorescence intensity (a.u.)
12,GCCTGTCCCCGCGGCGTCTCCTTCTGGCCTTGCAGCTTTACGGAGTCACCTAGTGCAG,10900 fluorescence intensity (a.u.)
13,CCAGCCGCCATCCCGGCTTTGACGACCACCATCCGGAGCACGGAGTCACCTAGTGCAG,8030 fluorescence intensity (a.u.)
14,GCCTCACTAGCTCACTCCCACTCCGCCATCCACTCCCACTCGGAGTCACCTAGTGCAG,10100 fluorescence intensity (a.u.)
15,AATATTTAGTACTCTCTTCATTAAATTTGATTTTCAAATTCGGAGTCACCTAGTGCAG,11300 fluorescence intensity (a.u.)
16,TTTCATGGATAACACGTGCACTACATTCTTGCCTGTTCCACGGAGTCACCTAGTGCAG,10200 fluorescence intensity (a.u.)
17,TTTCTTTTTCAGCATTGACTTTTAAGTCACCAAGAACACACGGAGTCACCTAGTGCAG,8060 fluorescence intensity (a.u.)
18,TGCCACTGGAATTTTGTAAAATTGGATCAATGTCATCGCCCGGAGTCACCTAGTGCAG,8280 fluorescence intensity (a.u.)
19,ACGACATTAATGCTTTCCCCACATTTCTCTCTCAGACTCTCGGAGTCACCTAGTGCAG,8120 fluorescence intensity (a.u.)
20,TACACGCCACAGTTTGTTCCACCGAAGCTGCACATTTCACCGGAGTCACCTAGTGCAG,9980 fluorescence intensity (a.u.)
21,CTTCTTCCATCCTAATCACCGCATTCCAGTACTATCCATACGGAGTCACCTAGTGCAG,11900 fluorescence intensity (a.u.)
